From PMC7862700 come the findings set out here.

Only a part is listed here, and it is no random draw. At the low end of the ranking, values are background and their order means little.

Test in all cases: DAPPL (digital affinity profiling via proximity ligation, sequencing)
What all share (details): 10 mM Tris-HCl pH 7.5, 50 mM NaCl, 1 mM DTT, 4% glycerol, room temperature, 30 min; GST-TFs on glutathione beads, 16-mer random dsDNA library, 0.1% …; high values mean tight binding; double strand, one strand shown; scale: fold enrichment (6-mer frequency, TF over GST control)

The target in experiment [1] is T1, ELK1 (UniProt P19419).
T1 sequence: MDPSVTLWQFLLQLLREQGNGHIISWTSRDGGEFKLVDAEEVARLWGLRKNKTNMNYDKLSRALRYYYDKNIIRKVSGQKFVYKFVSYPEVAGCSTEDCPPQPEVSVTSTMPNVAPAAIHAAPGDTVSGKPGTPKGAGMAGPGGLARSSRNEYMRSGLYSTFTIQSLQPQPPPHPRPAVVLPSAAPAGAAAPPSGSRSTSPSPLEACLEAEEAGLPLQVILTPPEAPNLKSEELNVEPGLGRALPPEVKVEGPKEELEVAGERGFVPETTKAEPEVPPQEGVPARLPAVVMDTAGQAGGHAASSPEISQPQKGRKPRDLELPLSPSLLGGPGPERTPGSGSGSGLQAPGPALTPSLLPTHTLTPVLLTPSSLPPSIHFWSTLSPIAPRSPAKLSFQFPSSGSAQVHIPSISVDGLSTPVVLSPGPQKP

Experiment [2] addresses T2, ELK3 (UniProt P41970).
T2 sequence: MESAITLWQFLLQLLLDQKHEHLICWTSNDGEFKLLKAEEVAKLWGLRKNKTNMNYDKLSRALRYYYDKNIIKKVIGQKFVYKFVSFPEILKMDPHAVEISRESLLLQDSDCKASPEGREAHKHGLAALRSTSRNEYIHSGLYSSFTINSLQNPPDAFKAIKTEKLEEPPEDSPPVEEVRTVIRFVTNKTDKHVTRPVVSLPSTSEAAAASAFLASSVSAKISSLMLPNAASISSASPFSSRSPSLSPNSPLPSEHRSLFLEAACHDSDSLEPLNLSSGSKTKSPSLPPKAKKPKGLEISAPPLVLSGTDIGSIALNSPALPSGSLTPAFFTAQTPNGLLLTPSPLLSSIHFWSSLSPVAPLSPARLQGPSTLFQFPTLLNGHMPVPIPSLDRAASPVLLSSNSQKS

The target in experiment [3] is T3, SPIC (UniProt Q8N5J4).
T3 sequence: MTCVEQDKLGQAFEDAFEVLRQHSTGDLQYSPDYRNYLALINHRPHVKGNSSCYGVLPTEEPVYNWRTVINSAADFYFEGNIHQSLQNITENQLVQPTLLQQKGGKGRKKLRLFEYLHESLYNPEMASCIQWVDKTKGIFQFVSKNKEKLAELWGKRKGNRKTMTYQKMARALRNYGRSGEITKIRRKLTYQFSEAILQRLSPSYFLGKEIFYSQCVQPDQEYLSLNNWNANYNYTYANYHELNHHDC

Experiment [4] addresses T4, ETS2 (UniProt P15036).
T4 sequence: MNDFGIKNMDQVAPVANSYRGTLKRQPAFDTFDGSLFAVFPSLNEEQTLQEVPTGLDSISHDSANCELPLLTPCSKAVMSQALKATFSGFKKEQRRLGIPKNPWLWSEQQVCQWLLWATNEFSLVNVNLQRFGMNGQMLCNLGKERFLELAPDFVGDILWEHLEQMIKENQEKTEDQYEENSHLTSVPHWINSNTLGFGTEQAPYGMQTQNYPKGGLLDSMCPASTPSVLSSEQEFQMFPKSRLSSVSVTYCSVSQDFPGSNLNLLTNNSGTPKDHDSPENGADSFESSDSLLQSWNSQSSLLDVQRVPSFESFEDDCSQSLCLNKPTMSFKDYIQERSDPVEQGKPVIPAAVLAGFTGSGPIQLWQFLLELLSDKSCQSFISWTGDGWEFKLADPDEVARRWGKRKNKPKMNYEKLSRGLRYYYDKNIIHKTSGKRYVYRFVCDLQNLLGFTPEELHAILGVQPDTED

Experiment [5] has as its target T5, ETV3 (UniProt P41162-2).
T5 sequence: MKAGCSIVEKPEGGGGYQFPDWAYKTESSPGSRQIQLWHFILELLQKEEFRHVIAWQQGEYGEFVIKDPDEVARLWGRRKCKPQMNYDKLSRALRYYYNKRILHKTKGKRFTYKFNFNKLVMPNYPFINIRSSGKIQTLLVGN

Consider AGCGGG, for which the binding signal is 0.491 in experiment [1]; 0.518 in experiment [2]; 0.489 in experiment [3]; 0.472 in experiment [4]; 0.451 in experiment [5].

Take CAGTGC: the binding signal in experiment [1] turned out to be 0.721; in experiment [2], 0.805; in experiment [3], 0.798; in experiment [4], 0.792; in experiment [5], 0.769.

Take GGCAAA: the binding signal in experiment [1] was 0.924; in experiment [2], 0.926; in experiment [3] it was 0.894; in experiment [4], 0.928; in experiment [5], 0.879.

With CCTGAG, the binding signal in experiment [1] worked out at 0.853; in experiment [2], 0.772; in experiment [3], 0.699; in experiment [4], 0.81; in experiment [5] it was 0.851.

Consider GCGGGT, for which the binding signal is 0.575 in experiment [1]; 0.581 in experiment [2]; 0.601 in experiment [3]; 0.613 in experiment [4]; 0.618 in experiment [5].

With GACGAA, the binding signal in experiment [1] was 0.78; in experiment [2] it was 0.877; in experiment [3], 0.802; in experiment [4], 0.877; in experiment [5] it was 0.772.

On to GAGTAT, for which the binding signal was 0.65 in experiment [1]; 0.552 in experiment [2]; 0.575 in experiment [3]; 0.592 in experiment [4]; 0.547 in experiment [5].

For the sequence GTCGTT, the binding signal in experiment [1] came to 0.722; in experiment [2], 0.696; in experiment [3] it was 0.647; in experiment [4] it was 0.741; in experiment [5], 0.774.

For CGCAGT, the binding signal was 0.751 in experiment [1]; 0.762 in experiment [2]; 0.701 in experiment [3]; 0.737 in experiment [4]; 0.75 in experiment [5].

Take AGACGC: the binding signal in experiment [1] amounted to 0.706; in experiment [2], 0.639; in experiment [3] it was 0.674; in experiment [4], 0.696; in experiment [5] it was 0.704.

GAAGGA: the binding signal in experiment [1] came to 0.709; in experiment [2], 0.708; in experiment [3], 0.748; in experiment [4], 0.736; in experiment [5] it was 0.725.

On to TAGACG, for which the binding signal in experiment [1] was found to be 0.739; in experiment [2], 0.711; in experiment [3], 0.709; in experiment [4], 0.758; in experiment [5], 0.728.

In the case of GAGATT, the binding signal was 0.706 in experiment [1]; 0.672 in experiment [2]; 0.709 in experiment [3]; 0.663 in experiment [4]; 0.634 in experiment [5].

Regarding GGGTCG, the binding signal in experiment [1] was 0.571; in experiment [2], 0.558; in experiment [3], 0.602; in experiment [4] it was 0.658; in experiment [5], 0.587.

As for GCATGC, the binding signal in experiment [1] was found to be 0.854; in experiment [2] it was 0.753; in experiment [3], 1.07; in experiment [4] it was 0.838; in experiment [5] it was 0.806.

Turning to TTAGAC, the binding signal in experiment [1] was found to be 0.829; in experiment [2], 0.758; in experiment [3], 0.794; in experiment [4], 0.763; in experiment [5], 0.777.

Regarding TGCGGG, the binding signal is 0.813 in experiment [1]; 0.776 in experiment [2]; 0.801 in experiment [3]; 0.79 in experiment [4]; 0.795 in experiment [5].

For AAGACG, the binding signal in experiment [1] stood at 0.784; in experiment [2], 0.781; in experiment [3], 0.799; in experiment [4], 0.834; in experiment [5] it was 0.798.

Take CGGGGG: the binding signal in experiment [1] came out at 0.507; in experiment [2], 0.469; in experiment [3], 0.456; in experiment [4], 0.435; in experiment [5] it was 0.494.

On to AGTCAA, for which the binding signal in experiment [1] stood at 0.609; in experiment [2], 0.652; in experiment [3], 0.562; in experiment [4] it was 0.595; in experiment [5], 0.634.

Regarding GGGGTC, the binding signal came out at 0.628 in experiment [1]; 0.694 in experiment [2]; 0.654 in experiment [3]; 0.684 in experiment [4]; 0.634 in experiment [5].

Take ACACAG: the binding signal in experiment [1] was 0.933; in experiment [2] it was 0.945; in experiment [3] it was 0.896; in experiment [4], 0.979; in experiment [5], 0.953.

Take AGGTGC: the binding signal in experiment [1] was found to be 0.686; in experiment [2] it was 0.705; in experiment [3], 0.668; in experiment [4] it was 0.643; in experiment [5], 0.689.

For the sequence GCCGCG, the binding signal in experiment [1] was found to be 0.688; in experiment [2] it was 0.797; in experiment [3] it was 0.753; in experiment [4], 0.815; in experiment [5] it was 0.786.

As for TAGGAG, the binding signal in experiment [1] was 0.384; in experiment [2], 0.432; in experiment [3], 0.382; in experiment [4], 0.395; in experiment [5], 0.425.

Regarding GGACAC, the binding signal in experiment [1] is 0.781; in experiment [2] it was 0.753; in experiment [3], 0.716; in experiment [4], 0.814; in experiment [5], 0.807.

Turning to AGAGCA, the binding signal in experiment [1] was 0.746; in experiment [2], 0.785; in experiment [3], 0.84; in experiment [4] it was 0.711; in experiment [5], 0.75.

On to GTCAGA, for which the binding signal in experiment [1] turned out to be 0.663; in experiment [2], 0.566; in experiment [3] it was 0.664; in experiment [4] it was 0.612; in experiment [5] it was 0.63.

For the sequence CCAGAG, the binding signal was 0.623 in experiment [1]; 0.699 in experiment [2]; 0.656 in experiment [3]; 0.657 in experiment [4]; 0.65 in experiment [5].

Consider GAACGG, for which the binding signal in experiment [1] worked out at 0.608; in experiment [2], 0.699; in experiment [3] it was 0.522; in experiment [4], 0.643; in experiment [5], 0.653.
